From paper PMC6290345
These are yes or no findings as the source states them, for the method shown. Some results given as binding are weak or reduced against the parent protein; the word gives no strength. Where a sequence is shown, tags or fusion partners need not be part of it.

The chains behind the UniProt entries cited, without tags or fusion partners.
UniProt Q9Y2H1: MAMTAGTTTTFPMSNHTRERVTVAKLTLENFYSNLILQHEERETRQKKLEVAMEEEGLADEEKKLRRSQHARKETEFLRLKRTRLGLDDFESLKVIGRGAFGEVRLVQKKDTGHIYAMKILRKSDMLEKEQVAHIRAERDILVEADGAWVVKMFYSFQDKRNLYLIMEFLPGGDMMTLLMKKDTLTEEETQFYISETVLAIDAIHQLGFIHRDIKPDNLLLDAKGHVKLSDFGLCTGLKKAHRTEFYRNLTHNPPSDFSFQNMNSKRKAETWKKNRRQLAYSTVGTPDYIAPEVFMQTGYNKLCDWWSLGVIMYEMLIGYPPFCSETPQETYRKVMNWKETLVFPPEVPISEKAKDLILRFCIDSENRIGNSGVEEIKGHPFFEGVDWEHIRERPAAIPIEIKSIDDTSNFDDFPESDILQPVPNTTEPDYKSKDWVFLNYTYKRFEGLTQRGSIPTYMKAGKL
UniProt Q15208: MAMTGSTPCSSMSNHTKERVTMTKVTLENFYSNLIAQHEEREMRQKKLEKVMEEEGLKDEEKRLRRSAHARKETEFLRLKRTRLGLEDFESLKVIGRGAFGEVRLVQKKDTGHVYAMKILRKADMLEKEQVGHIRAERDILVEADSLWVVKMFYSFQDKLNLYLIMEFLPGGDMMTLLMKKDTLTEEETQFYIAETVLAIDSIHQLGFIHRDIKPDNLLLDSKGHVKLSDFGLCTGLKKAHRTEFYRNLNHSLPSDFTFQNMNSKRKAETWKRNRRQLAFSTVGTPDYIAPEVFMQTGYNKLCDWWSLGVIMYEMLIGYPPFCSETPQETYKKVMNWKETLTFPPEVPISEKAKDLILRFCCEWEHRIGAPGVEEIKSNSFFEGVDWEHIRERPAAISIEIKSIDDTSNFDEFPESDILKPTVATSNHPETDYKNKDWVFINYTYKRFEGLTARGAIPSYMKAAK

Legend:
[1] = biological target: FLAG-tagged wild type Ndr2 (human) (UniProt Q9Y2H1); assay: co-purification of a co-expressed complex; FLAG-tagged Ndr/GFP-Mob2 complexes isolated from HEK 293T cells as in ref. 42 and used soluble for kinase reactions on a peptide library
FLAG-tagged Ndr1 (human) = FLAG-tagged Ndr1 (human) (UniProt Q15208); assay: as above

binding [1]: binds | binding (FLAG-tagged Ndr1 (human)): binds
B1: GFP-Mob2 (protein, UniProt Q70IA6 1-237)
chain: MDWLMGKSKAKPNGKKPAAEERKAYLEPEHTKARITDFQFKELVVLPREIDLNEWLASNTTTFFHHINLQYSTISEFCTGETCQTMAVCNTQYYWYDERGKKVKCTAPQYVDFVMSSVQKLVTDEDVFPTKYGREFPSSFESLVRKICRHLFHVLAHIYWAHFKETLALELHGHLNTLYVHFILFAREFNLLDPKETAIMDDLTEVLCSGAGGVHSGGSGDGAGSGGPGAQNHVKER
